{
  "source": "patent US20100240591A1",
  "about": "“TPP II INHIBITORS FOR USE IN THE TREATMENT OF AUTOIMMUNE AND INFLAMMATORY DISEASES AND TRANSPLANT REJECTION” (ONCOREG AB, priority 2007, published 2010)",
  "system": "EL-4 T-lymphoma cells",
  "experiment": "Growth of EL-4 T-lymphoma cells in vivo in syngeneic C57BI/6 mice",
  "design": "species or system mouse",
  "details": "5 mg/kg Dexamethasone twice weekly, C57BI/6 mice (FIG. 9)",
  "procedure": "To test whether our TPPII inhibitors could improve the therapeutic effects of an anti-inflammatory drug in vivo, we examined growth of the T cell-derived lymphoma line EL-4 in vivo, in mice subjected to Cortisone-treatment. We used the derivate Dexamethasone at 5 mg/kg, a dose previously reported to cause thymocyte apoptosis, and a block of T cell responses in vivo (Brewer, J. A., Kanagawa, O., Sleckman, B. P., Muglia, L. J., Thymocyte apoptosis induced by T cell activation is mediated by glucocorticoids in vivo. J. Immunol. 2002, 169:1837-43.). The glucocorticoid receptor of T cells is crucial for curtailing lethal immune activation (Brewer J A, Khor B, Vogt S K, Muglia L M, Fujiwara H, Haegele K E, Sleckman B P, Muglia L J. T-cell glucocorticoid receptor is required to suppress COX-2-mediated lethal immune activation. Nat. Med. 2003 October; 9(10):1318-22.). Inhibited activation and proliferation of T cells in vivo by Dexamethasone-treatment is a standard method to treat patients with auto-immune, inflammatory as well as transplantation rejection diseases. It is however clear that disease symptoms, as well as immune activation and proliferation, are sometimes not controlled by Dexamethasone, or other Cortisone derivatives. […]\n5×10^6 EL-4 T-lymphoma cells were inoculated subcutaneously into syngeneic C57BI/6 mice. […] The size of EL-4 lymphoma tumours were measured manually twice weekly. […]",
  "note": "At least one structure is not confirmed: it was looked up by name or label, or the drawing left a doubt.",
  "data": [
    {"smiles": "C[C@@H]1C[C@H]2[C@@H]3CCC4=CC(=O)C=C[C@]4(C)[C@@]3(F)[C@@H](O)C[C@]2(C)[C@@]1(O)C(=O)CO", "note": "[Dexamethasone, reference compound]", "values": [
      {"measurement": "growth of EL-4 cells in vivo", "value": "reduced growth of EL-4 cells in vivo"}
    ]}
  ]
}
